These are yes or no findings as the source states them, for the method shown. In cells and extracts the contact can be indirect. A yes stands for co-enrichment or nearness to the bait. Other partners may have been found.
What was measured:
Test in all cases: affinity purification with mass spectrometry; GFP-tagged C2H2-ZF proteins as baits in inducible HEK293 cell lines, harvested 24 h after doxycycline; two biological replicates; SAINTexpress AvgP cutoff of 1
ZNF677 (human) = ZNF677 (human) (UniProt Q86XU0)
ZFP28 (human) = ZFP28 (human) (UniProt Q8NHY6)
ZNF273 (human) = ZNF273 (human) (UniProt Q14593)

Protein sequences, listed by entry. Tags and fused reporters are not part of them.
UniProt Q86XU0: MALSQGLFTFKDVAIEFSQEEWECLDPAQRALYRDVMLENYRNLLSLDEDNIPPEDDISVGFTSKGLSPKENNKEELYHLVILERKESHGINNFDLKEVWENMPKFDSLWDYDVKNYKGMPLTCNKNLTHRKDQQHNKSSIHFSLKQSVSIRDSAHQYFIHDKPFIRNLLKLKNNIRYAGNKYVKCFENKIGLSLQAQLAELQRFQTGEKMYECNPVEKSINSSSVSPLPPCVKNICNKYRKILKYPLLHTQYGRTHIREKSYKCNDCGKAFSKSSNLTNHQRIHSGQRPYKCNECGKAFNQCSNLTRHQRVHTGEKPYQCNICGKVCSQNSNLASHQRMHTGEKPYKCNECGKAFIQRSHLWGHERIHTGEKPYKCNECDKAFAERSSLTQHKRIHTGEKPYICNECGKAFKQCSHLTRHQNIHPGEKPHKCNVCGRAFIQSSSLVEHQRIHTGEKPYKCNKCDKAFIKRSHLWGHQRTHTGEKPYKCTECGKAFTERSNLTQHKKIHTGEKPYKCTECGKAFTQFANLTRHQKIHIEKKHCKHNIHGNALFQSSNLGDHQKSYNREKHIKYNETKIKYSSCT
UniProt Q8NHY6: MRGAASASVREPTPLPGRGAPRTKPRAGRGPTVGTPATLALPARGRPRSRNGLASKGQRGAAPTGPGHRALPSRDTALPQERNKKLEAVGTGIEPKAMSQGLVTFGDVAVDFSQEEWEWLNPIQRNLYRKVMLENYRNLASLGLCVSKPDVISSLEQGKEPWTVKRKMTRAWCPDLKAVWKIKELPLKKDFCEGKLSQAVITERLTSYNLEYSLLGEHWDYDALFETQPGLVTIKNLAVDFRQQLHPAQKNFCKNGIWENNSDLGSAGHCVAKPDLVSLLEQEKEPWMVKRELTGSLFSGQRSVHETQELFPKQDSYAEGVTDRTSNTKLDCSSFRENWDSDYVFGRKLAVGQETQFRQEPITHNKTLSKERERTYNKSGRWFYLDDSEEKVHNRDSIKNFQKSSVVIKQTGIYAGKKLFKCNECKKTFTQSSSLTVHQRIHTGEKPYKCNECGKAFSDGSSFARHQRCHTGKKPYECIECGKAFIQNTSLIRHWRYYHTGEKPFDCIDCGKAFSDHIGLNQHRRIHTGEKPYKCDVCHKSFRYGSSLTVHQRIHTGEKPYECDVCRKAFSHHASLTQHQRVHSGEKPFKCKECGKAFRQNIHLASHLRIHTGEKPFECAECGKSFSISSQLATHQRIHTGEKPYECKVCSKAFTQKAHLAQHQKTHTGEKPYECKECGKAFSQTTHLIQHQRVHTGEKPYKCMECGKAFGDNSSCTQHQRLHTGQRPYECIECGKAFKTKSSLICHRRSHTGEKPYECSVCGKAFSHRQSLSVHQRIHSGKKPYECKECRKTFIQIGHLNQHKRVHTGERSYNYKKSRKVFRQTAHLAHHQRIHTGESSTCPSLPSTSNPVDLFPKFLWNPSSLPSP
UniProt Q14593: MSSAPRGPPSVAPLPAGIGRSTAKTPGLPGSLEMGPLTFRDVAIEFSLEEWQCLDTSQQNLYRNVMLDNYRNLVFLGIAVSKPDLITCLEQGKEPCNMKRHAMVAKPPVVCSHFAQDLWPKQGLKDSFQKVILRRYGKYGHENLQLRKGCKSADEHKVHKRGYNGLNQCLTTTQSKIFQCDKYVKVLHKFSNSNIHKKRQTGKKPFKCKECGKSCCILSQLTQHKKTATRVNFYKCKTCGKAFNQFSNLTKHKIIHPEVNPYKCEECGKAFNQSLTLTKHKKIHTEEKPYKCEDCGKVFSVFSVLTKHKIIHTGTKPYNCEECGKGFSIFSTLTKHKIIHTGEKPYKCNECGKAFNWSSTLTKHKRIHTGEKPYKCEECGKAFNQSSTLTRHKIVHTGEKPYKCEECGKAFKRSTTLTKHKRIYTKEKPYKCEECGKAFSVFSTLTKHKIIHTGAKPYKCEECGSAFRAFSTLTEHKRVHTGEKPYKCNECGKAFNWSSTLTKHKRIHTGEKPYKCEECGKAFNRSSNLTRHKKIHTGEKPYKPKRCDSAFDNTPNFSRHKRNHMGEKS
UniProt Q12888: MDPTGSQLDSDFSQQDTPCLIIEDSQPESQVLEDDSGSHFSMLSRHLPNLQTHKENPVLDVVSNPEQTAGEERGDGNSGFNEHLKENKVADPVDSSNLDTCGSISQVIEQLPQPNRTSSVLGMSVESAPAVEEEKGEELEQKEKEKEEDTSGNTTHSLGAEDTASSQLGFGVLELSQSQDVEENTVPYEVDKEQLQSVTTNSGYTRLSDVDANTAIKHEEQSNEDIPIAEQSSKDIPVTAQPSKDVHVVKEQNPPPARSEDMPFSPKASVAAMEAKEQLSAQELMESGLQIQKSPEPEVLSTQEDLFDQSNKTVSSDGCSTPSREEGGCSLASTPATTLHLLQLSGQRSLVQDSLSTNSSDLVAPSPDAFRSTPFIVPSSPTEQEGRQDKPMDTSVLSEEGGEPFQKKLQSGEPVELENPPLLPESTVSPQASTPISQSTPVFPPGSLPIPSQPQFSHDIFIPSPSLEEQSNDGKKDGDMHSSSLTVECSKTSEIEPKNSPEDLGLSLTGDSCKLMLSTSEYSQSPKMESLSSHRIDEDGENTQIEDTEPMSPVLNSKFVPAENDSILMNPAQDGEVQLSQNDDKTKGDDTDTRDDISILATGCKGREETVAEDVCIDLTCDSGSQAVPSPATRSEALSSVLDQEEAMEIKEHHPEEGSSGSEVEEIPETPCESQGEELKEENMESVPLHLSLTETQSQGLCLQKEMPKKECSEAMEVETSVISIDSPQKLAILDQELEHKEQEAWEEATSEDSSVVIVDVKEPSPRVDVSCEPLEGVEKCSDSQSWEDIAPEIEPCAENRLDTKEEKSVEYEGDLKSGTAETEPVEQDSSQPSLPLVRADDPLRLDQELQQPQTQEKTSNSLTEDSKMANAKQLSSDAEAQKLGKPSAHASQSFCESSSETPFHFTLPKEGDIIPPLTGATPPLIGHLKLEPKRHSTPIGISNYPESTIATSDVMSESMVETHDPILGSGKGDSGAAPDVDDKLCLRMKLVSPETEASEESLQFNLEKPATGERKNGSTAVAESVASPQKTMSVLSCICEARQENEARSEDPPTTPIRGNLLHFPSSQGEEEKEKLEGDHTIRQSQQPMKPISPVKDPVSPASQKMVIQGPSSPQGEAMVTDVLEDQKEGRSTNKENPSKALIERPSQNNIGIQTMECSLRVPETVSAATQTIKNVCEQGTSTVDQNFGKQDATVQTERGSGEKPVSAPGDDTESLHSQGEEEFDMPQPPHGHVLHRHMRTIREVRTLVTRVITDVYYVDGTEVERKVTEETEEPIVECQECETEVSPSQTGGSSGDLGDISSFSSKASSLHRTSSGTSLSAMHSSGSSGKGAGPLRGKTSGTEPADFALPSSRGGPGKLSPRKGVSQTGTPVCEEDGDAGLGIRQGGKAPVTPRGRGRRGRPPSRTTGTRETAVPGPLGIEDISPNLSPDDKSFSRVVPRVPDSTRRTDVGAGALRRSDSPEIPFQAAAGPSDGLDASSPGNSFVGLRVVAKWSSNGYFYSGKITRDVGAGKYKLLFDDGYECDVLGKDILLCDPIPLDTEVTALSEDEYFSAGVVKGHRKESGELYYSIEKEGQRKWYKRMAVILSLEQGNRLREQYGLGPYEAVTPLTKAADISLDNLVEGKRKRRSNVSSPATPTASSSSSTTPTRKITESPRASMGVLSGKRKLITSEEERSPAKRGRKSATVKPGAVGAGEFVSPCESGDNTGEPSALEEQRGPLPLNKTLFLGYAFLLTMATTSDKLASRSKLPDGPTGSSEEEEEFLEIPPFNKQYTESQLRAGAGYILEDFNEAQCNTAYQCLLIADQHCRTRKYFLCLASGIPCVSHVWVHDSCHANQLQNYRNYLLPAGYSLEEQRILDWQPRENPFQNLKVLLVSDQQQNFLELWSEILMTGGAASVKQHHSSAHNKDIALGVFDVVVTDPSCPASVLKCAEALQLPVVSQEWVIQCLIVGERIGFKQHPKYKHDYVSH

Measured: binding

TP53BP1 (from UniProt Q12888 1-1972)
binds: all assays above
